Measured values published in article PMC8464605.
These are yes or no findings as the source states them, for the method shown. In cells and extracts the contact can be indirect. Some binding calls cover weakened binding; strength is not graded here. Each block holds one substance with its values, some of them ahead of it.

Protein sequences, listed by entry. Tags and fused reporters are not part of them.
UniProt Q15910: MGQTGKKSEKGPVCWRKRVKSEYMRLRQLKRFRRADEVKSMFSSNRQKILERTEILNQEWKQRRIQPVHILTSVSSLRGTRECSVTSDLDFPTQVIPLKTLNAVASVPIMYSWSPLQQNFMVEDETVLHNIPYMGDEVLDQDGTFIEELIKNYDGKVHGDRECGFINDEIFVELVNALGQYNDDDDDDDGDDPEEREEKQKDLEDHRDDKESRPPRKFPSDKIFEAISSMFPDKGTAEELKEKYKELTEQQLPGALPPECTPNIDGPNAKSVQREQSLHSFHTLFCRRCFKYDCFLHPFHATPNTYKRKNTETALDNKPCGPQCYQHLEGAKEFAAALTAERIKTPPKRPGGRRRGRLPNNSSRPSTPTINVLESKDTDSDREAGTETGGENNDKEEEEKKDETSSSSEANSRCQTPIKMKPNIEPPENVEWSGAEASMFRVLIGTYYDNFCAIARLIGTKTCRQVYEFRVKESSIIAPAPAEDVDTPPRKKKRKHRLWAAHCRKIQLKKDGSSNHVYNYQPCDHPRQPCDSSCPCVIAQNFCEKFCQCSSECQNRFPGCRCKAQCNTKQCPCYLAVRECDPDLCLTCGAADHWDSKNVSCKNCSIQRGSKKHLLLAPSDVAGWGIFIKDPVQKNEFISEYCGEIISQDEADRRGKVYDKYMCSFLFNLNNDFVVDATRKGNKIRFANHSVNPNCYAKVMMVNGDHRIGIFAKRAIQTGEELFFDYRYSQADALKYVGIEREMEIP
UniProt O14929: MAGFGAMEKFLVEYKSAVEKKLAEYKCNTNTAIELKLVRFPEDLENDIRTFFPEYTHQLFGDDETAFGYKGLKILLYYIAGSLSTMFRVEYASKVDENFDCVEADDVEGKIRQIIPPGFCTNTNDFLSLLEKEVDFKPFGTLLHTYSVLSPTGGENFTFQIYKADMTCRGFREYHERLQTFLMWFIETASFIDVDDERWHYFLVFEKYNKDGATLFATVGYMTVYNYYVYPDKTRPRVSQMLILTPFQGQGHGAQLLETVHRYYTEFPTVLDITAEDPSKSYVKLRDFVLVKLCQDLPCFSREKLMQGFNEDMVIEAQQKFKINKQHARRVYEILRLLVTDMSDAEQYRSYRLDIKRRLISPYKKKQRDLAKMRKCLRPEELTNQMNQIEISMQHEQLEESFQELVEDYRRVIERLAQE
UniProt Q5T4S7: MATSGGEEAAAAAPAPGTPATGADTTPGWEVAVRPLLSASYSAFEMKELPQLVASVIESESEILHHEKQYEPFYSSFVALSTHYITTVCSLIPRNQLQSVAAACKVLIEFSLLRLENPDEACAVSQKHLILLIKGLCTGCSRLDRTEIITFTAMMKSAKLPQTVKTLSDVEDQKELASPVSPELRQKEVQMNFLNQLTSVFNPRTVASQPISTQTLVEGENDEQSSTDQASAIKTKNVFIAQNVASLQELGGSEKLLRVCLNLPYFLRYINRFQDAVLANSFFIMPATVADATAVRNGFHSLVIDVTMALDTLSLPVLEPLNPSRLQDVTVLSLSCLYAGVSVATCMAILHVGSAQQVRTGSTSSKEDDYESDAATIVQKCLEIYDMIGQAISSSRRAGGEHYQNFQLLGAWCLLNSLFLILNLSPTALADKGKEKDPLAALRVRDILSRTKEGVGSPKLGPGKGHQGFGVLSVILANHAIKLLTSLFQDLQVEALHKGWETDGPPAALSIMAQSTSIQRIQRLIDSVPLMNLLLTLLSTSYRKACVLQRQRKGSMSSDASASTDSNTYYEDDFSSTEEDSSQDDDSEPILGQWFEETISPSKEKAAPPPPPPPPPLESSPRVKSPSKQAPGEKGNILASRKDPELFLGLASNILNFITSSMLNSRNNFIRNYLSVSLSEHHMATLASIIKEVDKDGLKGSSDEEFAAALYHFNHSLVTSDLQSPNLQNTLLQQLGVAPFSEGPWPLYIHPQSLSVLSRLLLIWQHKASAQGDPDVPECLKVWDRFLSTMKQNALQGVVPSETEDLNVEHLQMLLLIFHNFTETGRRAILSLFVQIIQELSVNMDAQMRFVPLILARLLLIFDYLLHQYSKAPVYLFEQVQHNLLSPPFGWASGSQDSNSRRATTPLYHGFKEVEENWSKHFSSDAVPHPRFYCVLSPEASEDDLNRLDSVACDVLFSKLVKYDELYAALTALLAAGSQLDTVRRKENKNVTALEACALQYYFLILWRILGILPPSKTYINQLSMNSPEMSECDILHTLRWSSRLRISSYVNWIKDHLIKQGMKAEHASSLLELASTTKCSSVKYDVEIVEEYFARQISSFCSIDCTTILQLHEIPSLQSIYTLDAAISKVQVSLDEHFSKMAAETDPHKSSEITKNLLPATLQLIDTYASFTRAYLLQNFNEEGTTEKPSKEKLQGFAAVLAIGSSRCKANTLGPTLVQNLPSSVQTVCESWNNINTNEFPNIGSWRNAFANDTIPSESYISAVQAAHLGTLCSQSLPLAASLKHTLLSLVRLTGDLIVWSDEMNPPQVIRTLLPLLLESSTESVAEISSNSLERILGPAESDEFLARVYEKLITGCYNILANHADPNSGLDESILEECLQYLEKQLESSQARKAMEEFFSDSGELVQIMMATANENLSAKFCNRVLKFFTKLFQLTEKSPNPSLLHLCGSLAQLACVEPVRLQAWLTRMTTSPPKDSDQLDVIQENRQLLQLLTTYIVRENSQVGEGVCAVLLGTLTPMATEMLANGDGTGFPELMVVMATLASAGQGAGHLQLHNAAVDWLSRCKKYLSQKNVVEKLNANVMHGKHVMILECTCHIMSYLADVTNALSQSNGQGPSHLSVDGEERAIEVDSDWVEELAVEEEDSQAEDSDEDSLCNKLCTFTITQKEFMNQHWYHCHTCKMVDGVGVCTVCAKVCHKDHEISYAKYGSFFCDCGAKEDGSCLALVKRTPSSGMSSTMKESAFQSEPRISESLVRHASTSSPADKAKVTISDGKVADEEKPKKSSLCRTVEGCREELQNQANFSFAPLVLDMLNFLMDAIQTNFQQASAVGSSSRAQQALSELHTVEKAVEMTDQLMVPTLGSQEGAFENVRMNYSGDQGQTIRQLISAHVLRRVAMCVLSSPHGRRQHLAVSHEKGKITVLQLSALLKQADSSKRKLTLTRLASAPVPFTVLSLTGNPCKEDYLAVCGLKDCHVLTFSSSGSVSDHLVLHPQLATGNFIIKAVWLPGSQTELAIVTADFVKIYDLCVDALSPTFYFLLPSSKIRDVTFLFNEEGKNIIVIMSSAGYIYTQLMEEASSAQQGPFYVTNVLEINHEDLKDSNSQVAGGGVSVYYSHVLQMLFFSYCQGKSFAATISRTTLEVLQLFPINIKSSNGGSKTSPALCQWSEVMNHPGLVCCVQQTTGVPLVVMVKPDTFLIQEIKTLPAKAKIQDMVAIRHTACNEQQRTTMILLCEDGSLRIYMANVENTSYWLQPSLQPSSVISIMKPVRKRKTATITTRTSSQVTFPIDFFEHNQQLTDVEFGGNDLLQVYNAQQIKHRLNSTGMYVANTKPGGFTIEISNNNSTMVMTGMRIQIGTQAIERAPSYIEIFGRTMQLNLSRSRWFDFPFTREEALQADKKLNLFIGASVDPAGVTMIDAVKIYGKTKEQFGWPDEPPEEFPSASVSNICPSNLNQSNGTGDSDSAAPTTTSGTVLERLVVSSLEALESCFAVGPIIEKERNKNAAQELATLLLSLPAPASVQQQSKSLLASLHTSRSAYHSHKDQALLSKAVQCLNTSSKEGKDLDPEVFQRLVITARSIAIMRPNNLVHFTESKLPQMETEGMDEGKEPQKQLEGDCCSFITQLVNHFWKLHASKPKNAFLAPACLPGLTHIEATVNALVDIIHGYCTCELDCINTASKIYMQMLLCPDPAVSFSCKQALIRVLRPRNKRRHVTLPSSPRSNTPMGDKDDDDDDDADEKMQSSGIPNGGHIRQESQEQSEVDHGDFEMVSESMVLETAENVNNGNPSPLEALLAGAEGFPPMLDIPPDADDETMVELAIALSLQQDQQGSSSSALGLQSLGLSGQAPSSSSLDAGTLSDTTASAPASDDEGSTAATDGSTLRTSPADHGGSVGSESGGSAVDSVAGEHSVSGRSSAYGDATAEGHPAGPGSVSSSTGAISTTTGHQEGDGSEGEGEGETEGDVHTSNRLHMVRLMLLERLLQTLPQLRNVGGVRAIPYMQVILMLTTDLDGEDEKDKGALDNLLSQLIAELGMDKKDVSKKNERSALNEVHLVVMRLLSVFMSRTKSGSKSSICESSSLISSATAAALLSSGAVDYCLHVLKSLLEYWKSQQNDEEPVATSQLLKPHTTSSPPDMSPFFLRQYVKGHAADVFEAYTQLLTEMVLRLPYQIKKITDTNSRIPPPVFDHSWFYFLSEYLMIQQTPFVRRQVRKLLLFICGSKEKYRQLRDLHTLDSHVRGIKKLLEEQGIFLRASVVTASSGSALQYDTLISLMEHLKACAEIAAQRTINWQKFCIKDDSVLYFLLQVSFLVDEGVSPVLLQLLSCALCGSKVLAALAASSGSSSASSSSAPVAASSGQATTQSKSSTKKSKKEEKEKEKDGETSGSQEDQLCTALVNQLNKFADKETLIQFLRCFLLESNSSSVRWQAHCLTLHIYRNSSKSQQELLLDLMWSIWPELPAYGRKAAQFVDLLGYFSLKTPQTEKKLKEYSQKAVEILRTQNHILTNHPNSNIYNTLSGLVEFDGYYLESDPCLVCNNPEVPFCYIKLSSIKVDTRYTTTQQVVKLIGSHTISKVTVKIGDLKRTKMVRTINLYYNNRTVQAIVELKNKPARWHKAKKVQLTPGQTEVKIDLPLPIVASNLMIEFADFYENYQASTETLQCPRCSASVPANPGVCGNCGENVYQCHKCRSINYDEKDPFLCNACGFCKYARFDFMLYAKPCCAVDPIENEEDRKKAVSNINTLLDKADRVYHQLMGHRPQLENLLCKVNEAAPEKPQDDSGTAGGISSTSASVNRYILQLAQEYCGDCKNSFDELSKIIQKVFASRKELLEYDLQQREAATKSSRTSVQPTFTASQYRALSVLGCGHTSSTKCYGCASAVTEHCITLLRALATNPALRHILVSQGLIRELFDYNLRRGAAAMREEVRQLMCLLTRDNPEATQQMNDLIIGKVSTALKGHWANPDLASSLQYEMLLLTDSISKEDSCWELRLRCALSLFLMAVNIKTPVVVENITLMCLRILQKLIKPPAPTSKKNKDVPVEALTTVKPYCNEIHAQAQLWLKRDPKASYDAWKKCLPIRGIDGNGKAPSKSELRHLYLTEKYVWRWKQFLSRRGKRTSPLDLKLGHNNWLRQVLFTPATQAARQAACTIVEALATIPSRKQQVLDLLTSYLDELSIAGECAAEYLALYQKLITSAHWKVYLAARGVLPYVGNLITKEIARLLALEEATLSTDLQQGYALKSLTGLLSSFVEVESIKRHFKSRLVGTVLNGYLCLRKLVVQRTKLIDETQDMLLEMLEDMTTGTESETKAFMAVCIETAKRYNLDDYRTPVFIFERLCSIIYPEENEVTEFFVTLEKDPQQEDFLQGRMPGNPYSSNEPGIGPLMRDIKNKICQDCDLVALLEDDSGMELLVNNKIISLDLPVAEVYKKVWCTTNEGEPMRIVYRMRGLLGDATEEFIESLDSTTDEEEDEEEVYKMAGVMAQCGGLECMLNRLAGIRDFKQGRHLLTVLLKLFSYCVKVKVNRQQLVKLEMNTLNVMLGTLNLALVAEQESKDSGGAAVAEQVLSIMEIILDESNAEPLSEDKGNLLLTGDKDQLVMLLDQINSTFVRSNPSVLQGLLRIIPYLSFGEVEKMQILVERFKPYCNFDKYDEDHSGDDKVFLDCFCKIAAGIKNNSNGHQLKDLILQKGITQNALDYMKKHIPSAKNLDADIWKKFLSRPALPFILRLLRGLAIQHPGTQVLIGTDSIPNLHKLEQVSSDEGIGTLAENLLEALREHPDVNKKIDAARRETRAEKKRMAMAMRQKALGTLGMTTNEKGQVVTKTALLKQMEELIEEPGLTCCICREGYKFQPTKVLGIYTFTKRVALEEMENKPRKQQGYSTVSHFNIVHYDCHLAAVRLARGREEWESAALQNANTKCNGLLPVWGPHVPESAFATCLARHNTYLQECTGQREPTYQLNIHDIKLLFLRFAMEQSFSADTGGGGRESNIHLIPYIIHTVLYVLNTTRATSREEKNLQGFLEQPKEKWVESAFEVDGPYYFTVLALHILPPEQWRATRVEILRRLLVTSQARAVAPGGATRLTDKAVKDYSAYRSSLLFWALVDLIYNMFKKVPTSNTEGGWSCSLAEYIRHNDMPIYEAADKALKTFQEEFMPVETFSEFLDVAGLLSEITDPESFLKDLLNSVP

Key:
[1] = target: EZH2, exogenously expressed (UniProt Q15910); assay: co-IP; exogenously expressed proteins in pancreatic cancer cell lines (Fig. S5e); western/IP lysis buffer, protein A/G agarose beads
[2] = target: whole-length GST-EZH2 recombinant protein (UniProt Q15910); assay: pull-down; GST fusion proteins immobilised on glutathione-sepharose beads, incubated 4 h with PANC-1 lysate (20 mmol/L Tris-HCl pH 7.5, 150 mmol/L NaCl, 0.1% Nonidet P40, 1 mmol/L DTT, 10% glycerol, 1 mmol/L EDTA, 2.5 mmol/L MgCl2); HAT1 detected by western blot; only the target purified
[3] = target: enhancer of zeste 2 polycomb repressive complex 2 subunit (EZH2), endogenous (human (endogenous in PANC-1, BxPC-3, MIA-PaCa-2)) (UniProt Q15910); assay: co-IP; endogenous proteins, reciprocal immunoprecipitation with anti-HAT1 and anti-EZH2 from lysates of PANC-1, BxPC-3 and MIA-PaCa-2 cells; western/IP lysis buffer, protein A/G agarose beads, overnight at 4 °C
[4] = target: enhancer of zeste 2 polycomb repressive complex 2 subunit (EZH2), endogenous (human (endogenous in PANC-1, BxPC-3, MIA-PaCa-2)) (UniProt Q15910); assay: co-IP; EZH2 immunoprecipitated from PANC-1 lysate, UBR4 detected by western blot; cells infected with control shRNA or HAT1-specific shRNAs, HAT1 overexpressed or restored

binding [1]: binds
Substance: HAT1, exogenously expressed (from UniProt O14929 1-419)

binding [2]: binds | binding [3]: binds
Substance: histone acetyltransferase 1 (HAT1), endogenous (from UniProt O14929 1-419)

binding [4]: binds
Substance: ubiquitin protein ligase E3 component n-recognin 4 (UBR4), endogenous (from UniProt Q5T4S7 1-5183)
